Data: article PMC8164090
Results are given in words; binding and its absence hold for the method and conditions named. Binding seen in cells or lysates may run through a third protein. Binding can be weak; no strength is given. Sequences can lack the tags named with a protein.

Assays:
Assay in all cases: co-IP; Grip-GFP IPs: purified MBP-Cnn fragments on anti-MBP high-capacity ProteinA beads; 65 µl extract of embryos expressing GFP-tagged Grip proteins, overnight at 4°C; five washes in PBST; blots with anti-GFP, anti-Grip71, anti-γ-tubulin; only the target purified
[1] = molecular target: MBP-tagged N-terminal fragment of Cnn-T (MBP-Cnn-T-N) (Drosophila melanogaster)
[2] = molecular target: MBP-tagged N-terminal fragment of Cnn-C lacking residues 1-77 (MBP-Cnn-C-N^Δ1-77) (Drosophila melanogaster)
[3] = molecular target: N-terminal fragment of Cnn-C with a phosphomimetic mutation at S186 (Cnn-C-N^S186) (Drosophila melanogaster)

Measured: binding

B1: Grip75^GCP4-sfGFP (protein, UniProt Q9VKU7 1-650)
chain: MIHDLLLACRSHNPEQLGIKAFNETTVIDQFIHPCEREIFMDIIKIIKVYQEVEQFTHSSGRKSDTHGELPDSLHGYYLLNLAKGIEMALEEYYAEIGRLEKYCLGNERNSLSYVYNALYAKFPLLVFMRNLITEIHVLNLRGCVLLHNLHQQCEHGDIQLEKAIKIIMKPVKNAFFSSLAHWLLFGVIDDVHSEFFIKFTPTDAVDGSSFSKSATCSLLSAEKNPEDYIWQYEVNMSQLPGFFSIVLAEKVLFVGQTVLVFKMGRNVKVKNKTDPLAAKLAELDSDDIYQLWSGRESEFFKMVVDLSNEDTINVFRLEKVIIDIKNYVSARLSEIAVNEVDLERQMGLIKDFFLLGRGEFYLEFCSQMVGTMETYREERFKNVTRSFELAATVTGITDDLDKFSLICQRSTSEPDDTSDFNFLQGLSLKYEYEWPLNLLFSPTTIERYNNIFRFLLIIRTYQYEIQRVWAKQTWRAKSAKDVPPNNKIITLRNYLMFFLNNMQYYIQVDVLESQFGILMNVIKSRSDFEVIQRAHTVFLANVLSHCFLLNESETQLNVTGSQNRNPIYGTLLKLFGICEKFAHMTQTKDPSDDLEDEVDQLNESFGVQIASLIQLLVDVKSASCLGPLSQLLLRLDFNCWFSASHNTSA
binds: all assays above
